Test results reported in paper PMC12462475.

Target: Synechocystis CurT-6xHis (Synechocystis sp. PCC 6803)
Assay: affinity purification with mass spectrometry; Ni-NTA pulldown of CurT-6xHis from Nonidet P40-solubilized Synechocystis whole-cell extract; washes with binding buffer and 30 mM imidazole, elution with 200 and 500 mM imidazole; compared with WT, n = 4

| binding | Binder |
| --- | --- |
| no binding | Synechocystis SepF, endogenous (protein, UniProt P73376 1-186) MILTKLKDFVGISEHDEYEEDYDEEMEFPQSVASQPPAEEVAPPPRISREPLSLNNETSIGTGVRNNVIGMPGINNSVAEVVVVEPHSFDEMPQVIQTLRERKSVVLNLNVMDPEEAQRAVDFVAGGTFAMDGHQERIGESIFLFTPNCVKVSSLAGRSQESNETSSSVSSDNFPTWGYETSRLAQ |
| binds | Synechocystis FtsZ, endogenous (protein, UniProt P73456 1-430) MTLNNDLPLNNIGFTGSGLNDGTEGLDDLFSSSIVDNEPLEALVETPTFASPSPNLKRDQIVPSNIAKIKVIGVGGGGCNAVNRMIASGVTGIDFWAINTDSQALTNTNAPDCIQIGQKLTRGLGAGGNPAIGQKAAEESRDEIARSLEGTDLVFITAGMGGGTGTGAAPIVAEVAKEMGCLTVGIVTRPFTFEGRRRAKQAEEGINALQSRVDTLIVIPNNQLLSVIPAETPLQEAFRVADDILRQGVQGISDIIIIPGLVNVDFADVRAVMADAGSALMGIGVGSGKSRAKEAATAAISSPLLESSIQGAKGVVFNVTGGTDLTLHEVNVAAEIIYEVVDADANIIFGAVIDDRLQGEMRITVIATGFNGEKEKPQAKTSSKPVLSGPPAGVETVPSTTTPEDPLGEIPMAPELDIPDFLQKRRFPRR |

These are yes or no findings as the source states them, for the method shown. Binding seen in cells or lysates may run through a third protein. Here binding means that the protein was enriched with, or labelled near, the bait; the list need not be complete. A no says only that the protein was not detected with the bait.
